Reference: patent US20030092000
For at least one entry, the source does not settle the construct or the ends of the probe. For some assays here: Where a protein sequence is shown, tags need not be part of it.

Sequences of proteins named here, by UniProt entry; tags and fusion partners are left off. Residues count along the entry.
UniProt P08047, 620-713: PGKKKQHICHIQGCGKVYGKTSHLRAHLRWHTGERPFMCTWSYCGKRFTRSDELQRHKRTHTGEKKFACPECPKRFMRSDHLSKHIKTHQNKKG

Experiments:
Sp1 zinc finger domain = Sp1 zinc finger domain (UniProt P08047); test: binding assay; details: reference information in exemplary ZFP data table; source and method not stated
[1] = tested on: T1, SBS design GL-8.3.1 (synthetic); test: binding assay; details: reference information in exemplary ZFP data table; method not stated
T1 sequence: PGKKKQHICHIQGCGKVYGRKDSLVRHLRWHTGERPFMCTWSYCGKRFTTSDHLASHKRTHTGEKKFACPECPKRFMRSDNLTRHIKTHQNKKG

GGGGCGGGG (double strand) [SP1 site]
Kd (Sp1 zinc finger domain): 25 nM

GAGTGTGTG (double strand) [GL-8.3.1 target]
Kd [1]: 32 nM
